In PMC7177587 one finds binding data, which are given here for two molecules.

The target in this test is GST‐PDZ1‐5‐M2 (GST‐PDZ1‐5 with PDZ domain 2 disrupted by the GLG‐GRG mutation). As to the kind of experiment: pull-down; GST-MUPP1-PDZ fusion proteins immobilized on glutathione resin (30 µl) mixed with 1 ml E. coli extract with overexpressed CBD or GlyT2Nrcf1 fusion of the CADM1 motif, 1 hr, room temperature; washed 3x; eluted with 20 mM glutathione (pH 8.0) or SDS sample buffer; 12% gel, Coomassie; only the target purified.

These are yes or no findings as the source states them, for the method shown. Binding seen in cells or lysates may run through a third protein. A result given as binding can be weak or reduced; the word gives no strength. Where a sequence is shown, tags or fusion partners need not be part of it.

With EKKEYFI [GlyT2Nrcf1‐EKKEYFI fusion protein], the binding result was “binds”.
Consider EKKEYFI [CBD‐EKKEYFI fusion protein containing the CADM1 PDZ motif (EKKEYFI)], for which the binding result is on record as “binds”.
